Patent publication US20040253289A1, “Natural plant compound with anti-HIV activity” (MIKONIK TECHNOLOGIES, LTD., priority 2004, published 2004)
Where “and” joins values, the source holds several entries; their conditions need not be identical. Equal entries are not always repeated. For some of these results: At least one structure is not confirmed: it was looked up by name or label, or the drawing left a doubt. Some results were stated once for a whole list of compounds, not compound by compound.

What was measured:
[1] = tested on: HIV-1zmb high/rapid strain; test: Formazan assay (MTT), protection against HIV-1 cytopathic action; assay type: cell-based; details: MT-4 cells, 5th day after infecting, compound and virus added simultaneously
[2] = tested on: HIV-1zmb high/rapid strain; test: Indirect immunofluorescence (IF), HIV-specific antigens on infected cells; assay type: cell-based; details: MT-4 cells, 3rd day after infecting; positive = fluorescent cells 75% less than untreated virus control
Excerpt: (§1) In all experiments the suspensional T-lymphoblastoid cell line MT-4 was used. Passages have been carried out every three days for achieving the initial cell concentration at about 4-5·10^5 cells ml^−1.
(§2) HIV-1zmb high/rapid strain with the titer more than 6.0 log TCID50 isolated in Belarus has been used in the tests.
(§3) The tests have been carried out under therapeutic circuit when the testing compound and virus were put into the cell culture simultaneously.
The indirect immunofluorescence assay is a useful means for determining the number of cells productively infected with HIV [Johnson V. A., Byington R. E. HIV indirect immunofluorescence assay. In “Techniques in HIV Research”: Stockton Press, 1990. P. 87-91]. This assay is quantitative and can be done using living cells. The technique gives the possibility to determine HIV-specific antigens expressed on cell surface membranes of the virus-infected cells. On the 3rd day after infecting, cells have been transferred onto wells of the laminated multiwell slides and fixed by cold (4° C.) acetone. Then the samples with fixed cells were treated by HIV-1-seropositive serum and then by FTC-conjugated sheep anti-human IgG. The resulting effect was estimated via evaluation of percentage of positive cells that was calculated using fluorescent microscope and taking into account 200 cells. […]

[3] = tested on: HIV-1zmb high/rapid strain; test: In vitro anti-HIV activity in infected cell culture (overall, three tests); assay type: cell-based; details: each test done in three repetitions; listed as EBI
Excerpt: as §1, §2, §3

[4] = tested on: human immunodeficiency virus; details: HIV replication in vitro; cited from earlier work

| SMILES | concentration protecting the living cells against HIV-1-cytopathic action [1] | concentration decreasing HIV-specific antigen production in the infected cells [2] | average efficient concentration as anti-HIV agent in vitro [3] | selectivity index [4] |
| --- | --- | --- | --- | --- |
| CC(C)[C@@H](C)[C@@H](O)[C@H](O)[C@@H](C)[C@H]1CC[C@H]2[C@@H]3COC(=O)[C@H]4C[C@H](O)[C@H](O)C[C@]4(C)[C@H]3CC[C@]12C [24-epibrassinolide] | 10^−7.5-10^−9.5 and 10.0-0.1 | 10^−6.5-10^−8 and 100.0-5.0 | 10^−7.5 M·l^−1 | – |
| C[C@H](CCCC(C)(C)O)[C@H]1CC[C@H]2[C@@H]3CC=C4C[C@@H](O)CC[C@]4(C)[C@H]3CC[C@]12C [25-hydroxycholesterol] | – | – | – | 2 to 8 |
